In doi:10.1101/2025.05.13.653717:

Biological target: T1, Phosphatase and Actin Regulator 4 (Phactr4) (mouse (endogenous in murine cells)) (UniProt Q501J7)
T1 sequence: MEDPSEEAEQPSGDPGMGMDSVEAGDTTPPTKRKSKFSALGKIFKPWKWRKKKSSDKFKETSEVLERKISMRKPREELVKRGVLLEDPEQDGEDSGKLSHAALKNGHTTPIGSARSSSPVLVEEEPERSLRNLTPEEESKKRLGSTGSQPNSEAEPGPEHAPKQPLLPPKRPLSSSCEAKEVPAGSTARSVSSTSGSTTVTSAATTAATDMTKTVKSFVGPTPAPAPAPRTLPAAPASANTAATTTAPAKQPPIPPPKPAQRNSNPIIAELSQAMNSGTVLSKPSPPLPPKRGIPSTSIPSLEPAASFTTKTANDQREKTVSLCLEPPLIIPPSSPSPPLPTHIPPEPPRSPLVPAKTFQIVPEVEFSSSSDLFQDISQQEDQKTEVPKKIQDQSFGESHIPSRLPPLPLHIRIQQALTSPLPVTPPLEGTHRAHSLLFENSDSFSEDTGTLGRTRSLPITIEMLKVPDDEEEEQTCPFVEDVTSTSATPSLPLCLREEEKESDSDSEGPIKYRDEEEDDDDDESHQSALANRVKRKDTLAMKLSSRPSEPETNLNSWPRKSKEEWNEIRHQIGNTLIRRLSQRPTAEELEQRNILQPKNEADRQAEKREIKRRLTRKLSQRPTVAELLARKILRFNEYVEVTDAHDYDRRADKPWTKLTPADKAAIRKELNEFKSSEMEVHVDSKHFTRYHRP
Assay: co-IP; Phactr4 antibody or control IgG added to precleared cell lysate overnight at 4°C, Protein G magnetic beads; IP Lysis Buffer 50 mM Tris pH 7.4, 1% IPEGAL, 150 mM NaCl, 1 mM EDTA, 10% glycerol, 1.5 mM MgCl2; blots for Arp3, PP1 and Phactr4

- binding: binds
Substance: Protein Phosphatase 1 (PP1) (mouse (endogenous in murine cells)) (enzyme)

These are yes or no findings as the source states them, for the method shown. Binding seen in cells or lysates may run through a third protein. Binding can be weak; no strength is given.
